Measurements reported in PubChem BioAssay AID1259425 (University of Nebraska Medical Center, 2018).
Purpose: 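Find knockdowns that reproduce the gene expression pattern seen when KSR1 is lost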 (primary screen). Cells: HCT116 human colon cancer cells. Reagent: siRNA pool against human genes, 50 nM siRNA. Measured: 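mRNA of six signature genes measured together by branched-DNA assay after 50 nM siRNA pool, blank removed, divided by geometric mean of two housekeeping genes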. Direction: BNIP3L mRNA: higher = more BNIP3L transcript after knockdown; NDRG1 mRNA: higher = more NDRG1 transcript after knockdown; BNIP3 mRNA: higher = more BNIP3 transcript after knockdown; ALDOC mRNA: higher = more ALDOC transcript after knockdown; ACSL5 mRNA: higher = more ACSL5 transcript after knockdown.
Shown is a random part of about 14,000 reagents. Not stated in the record: the time to read-out.

gene knocked down	BNIP3L mRNA, set 1	NDRG1 mRNA, set 1	BNIP3 mRNA, set 1	ALDOC mRNA, set 1	ACSL5 mRNA, set 1
GNAT2	0.101	0.104	0.303	0.0188	0.202
MANBAL	0.141	0.299	0.349	0.0353	0.225
PRUNE1	0.106	0.53	0.504	0.0589	0.216
AMBP	0.0328	0.208	0.269	0.0621	0.0754
SPTBN2	0.134	0.226	0.309	0.0461	0.135
CDC42SE2	0.0873	0.145	0.403	0.00639	0.289
CLDN6	0.151	0.235	0.326	0.0904	0.144
SH3GL3	0.349	1.31	0.613	0.0115	0.431
GDAP1	0.115	0.134	0.403	0.0204	0.0523
SLC26A6	0.141	0.25	0.303	0.0452	0.253
SAXO6	0.141	0.516	0.408	0.00974	0.118
OSBPL10	0.142	0.305	0.298	0.0241	0.193
VAMP1	0.228	0.107	0.865	0.228	0.2
ZNF35	0.11	0.0791	0.389	0.00172	0.261
KHDRBS3	0.0833	0.513	0.402	0.0289	0.159
ACAD8	0.0891	0.477	0.235	0.0202	0.0986
KRTAP4-1	0.236	0.749	0.282	0.0417	0.211
UBAP2L	0.23	0.14	0.288	0.0287	0.436
GRIA2	0.0747	0.19	0.238	0.0231	0.151
SPTB	0.0698	0.202	0.279	0.0278	0.111

Sorted by “BNIP3 mRNA, set 1” (highest first): some entries from above.
gene knocked down	BNIP3L mRNA, set 1	NDRG1 mRNA, set 1	BNIP3 mRNA, set 1	ALDOC mRNA, set 1	ACSL5 mRNA, set 1
CDC42SE2	0.0873	0.145	0.403	0.00639	0.289
SPTBN2	0.134	0.226	0.309	0.0461	0.135
AMBP	0.0328	0.208	0.269	0.0621	0.0754
